Primary screen of a compound library

Data taken from ChEMBL document CHEMBL3988442, “University of Dundee, Small-Polar-MMV Screening Library” (2021).

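Whole-cell growth test on Mycobacterium tuberculosis, read after 4 days in a medium based on cholesterol and the lipid DPPC; the read-out is not stated. Concentration: 50 µM. Higher reads as more growth inhibition (inferred: compounds with an IC50 in retests scored well above the rest). Of about 69,000 compounds tested this way, about 370 (0.54%) reached 50% or more in at least one test.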

Values are the deposited “Percent Effect”, in %. How 0% and 100% were set is not recorded. Most values in the screen are low, and negative values occur. This is an unselected part of the compounds tested. Two or more numbers in one place are separate tests of the same structure; such repeats can differ widely.

structure	Percent Effect
O=C(c1cccs1)N1CCc2ncc(Cn3cncn3)n2CC1	-2.889% and 5.782%
O=C(NC1(c2nccs2)CCCC1)c1cc(C2CC2)on1	9.555% and 15.78%
O=C(CNC(=O)c1c[nH]c2ccccc12)NCCCn1ccnc1	-8.039%
O=C(O)C1c2nc[nH]c2CCN1Cc1cc(-c2ccccc2)no1 (stereo unspecified)	-21.93%
CC(=O)NCc1ccc(S(=O)(=O)NC(=O)c2ccc3c(c2)COC3)s1	-10.85%
Cl.NCCNS(=O)(=O)Cc1ccc(Br)cc1	2.163%
CCc1nnc(Nc2cccc(C3CCN(c4cnccn4)CC3)n2)s1	-7.477%
O=C(NC1CCN(c2ncccn2)CC1)c1sccc1C1CC1	-2.505%
CN(Cc1cnccn1)C(=O)c1ccnc(OC2CCC2)c1	-1.888%
CC(C)N(C)[C@@H]1CCN(S(C)(=O)=O)[C@H]1Cc1ccccc1	7.996%
Cc1c(C(=O)NCCCC(N)=O)sc2ccc(F)cc12	3.939%
O=C(O)C(F)(F)F.O=C(O)C(F)(F)F.OCCN1CC2(CCN(c3ccccc3)C2)C1	26.73%
CC(C)(C)OC(=O)N1CCN(C(=O)CCn2cccn2)CC1	7.628%
CC(CCNC(=O)NCCNc1cnccn1)c1ccccc1 (stereo unspecified)	-3.553% and 11.1%
COc1ccc(OC)c(C(O)CNC(=O)Nc2cc(C)nn2C)c1 (stereo unspecified)	8.666%
Cc1cccc(C(=O)N2CCN(CCC(C)C)CC2)n1	14.29%
CC(C)c1nc(C2CCCN(C(=O)CCCn3ccnc3)C2)no1 (stereo unspecified)	13.88%
CCC(C(=O)NC)N(c1cccc(C)c1)S(C)(=O)=O (stereo unspecified)	3.766%
Cc1ncsc1-c1nnc(C2CCN(CC3CCCCC3)CC2)o1	-28.1%
C/C(=C\c1ccco1)CN(C)C(C)c1ccccn1 (stereo unspecified)	-6.774%
CC1CCN(c2ccc(NC(=O)CCn3cccn3)cc2)CC1	-2.282%
CCOC(C)C(=O)NS(=O)(=O)c1cccc2cc(C)cnc12 (stereo unspecified)	2.344%
Cc1c(C(=O)N2CCCC(C(=O)c3nccn3C)C2)c[nH]c(=O)c1C#N (stereo unspecified)	-33.97%
CC(C)c1nnc2n1CCN(Cc1cc(Cl)c3c(c1)OCO3)C2	10.65%
CC(SCCS(C)(=O)=O)c1nc(Cc2ccc(F)cc2)no1 (stereo unspecified)	-1.328%
Cc1ccc(O)c(C(=O)N2CCC(CNC(=O)OC(C)(C)C)C2)c1 (stereo unspecified)	-17.2% and -5.249%
CC(C)Nc1ncc(-c2csc(NC(=O)C[C@H]3COCCN3)n2)cn1	1.886%
COc1ccc(C2CC(=O)Nc3c2nc2n3CCCC2)cc1O (stereo unspecified)	-10.33%
CC(C)(C)OC(=O)NC1(c2noc(-c3ccco3)n2)CCC1	-4.015%
CCNc1ncc2c(n1)CN(c1ccc(CC)cc1)C2=O	-6.508%
CCc1noc(C2CCN(C(=O)CCn3nc(C)cc3C)CC2)n1	-10.68%
Cc1ccc(NC(C)C(=O)NCc2cccs2)cc1Cl (stereo unspecified)	51.57% and 62.38%
Cc1c(Br)cccc1S(=O)(=O)NCc1ccnn1C	6.299%
CN(CCCc1cnn(C)c1)C(=O)C1CCC(=O)N(C2CCCC2)C1 (stereo unspecified)	-7.504%
CC(C)S(=O)(=O)C(C)C(=O)NCc1ccccc1OCc1ccccc1 (stereo unspecified)	-13.78% and -11.44%
CCOCC(=O)N1CCC2(CC1)CC(c1ccccc1)CO2 (stereo unspecified)	-22.18%
CC(C)n1c(C2CCCN(CC(N)=O)C2)nc2ccccc21 (stereo unspecified)	-10.14%
CC1CN(CC(=O)NCCc2ccccc2)CCN1c1nccs1 (stereo unspecified)	14.34%
CCNC(=O)C1CCN(Cc2ccc(C(=O)Nc3cnns3)cc2)C1 (stereo unspecified)	17.72%
[H][C@]12CCNCC[C@@]1([H])S(=O)(=O)N(Cc1cccc(OC)c1)C2	-22.12%
CCn1cnnc1CNC(=O)N(C)Cc1c(F)cccc1Cl	0.1272%
CCc1nc(C2CCCN2CC(=O)Nc2c(C)nn(C)c2C)no1 (stereo unspecified)	4.801%
CCOCCC(=O)N1CCCN(Cc2csc(CC)n2)CC1	-14.5%
CCn1cc(C(=O)Nc2ccccc2C(=O)OC)cn1	-24.44%
Cc1cc(C)c2[nH]c(=O)c(CN3CCCC4(C3)CN(C)C(=O)O4)cc2c1 (stereo unspecified)	3.106%
Cc1c[nH]nc1C1CN(Cc2cnn(-c3ccccc3C(=O)O)c2)C1	-11.39% and -14.84%
O=C(c1ccccc1-c1nc[nH]n1)N1CCOC(C(F)(F)F)C1 (stereo unspecified)	-0.2907%
CCc1nnc(CN(C)c2cc(C)nc3c(C)c(C)nn23)o1	0.1354%
CCn1ccnc1CNCC1CCCN1c1cccnn1 (stereo unspecified)	13.93%
CC(C)C(=O)N1CCN(C(=O)N(C)C)CC2(CC(=O)N(C)C2)C1 (stereo unspecified)	-3.015%
CNc1cc(N2CCCC2CNCc2cccc(C(N)=O)c2)ncn1 (stereo unspecified)	5.033%
O=C(O)C(F)(F)F.[H][C@]12CCC[C@@H](CNc3ccccn3)[C@@]1([H])CN(Cc1cc[nH]n1)C2	-13.94%
COc1ccc(CCC(=O)N2CCCC(n3cncn3)C2)cc1 (stereo unspecified)	-7.105%
CCC(C)N1Cc2c(C(=O)N3CCOCC3)nn(C)c2C1.O=C(O)C(F)(F)F (stereo unspecified)	-0.5554%
CC1CCCN(C(=O)c2cn(-c3ccc(C(F)(F)F)cn3)nn2)C1 (stereo unspecified)	-2.506%
Cn1nnc2cc(C(=O)NS(=O)(=O)c3ccc(F)cc3)ccc21	1.733%
c1nc2c(c(NC3CCc4ncnn4C3)n1)CCC2 (stereo unspecified)	-5.816%
COc1ccc(C)c2c1N(C(=O)c1ccc3nnc(C)n3c1)CCC2	5.489%
CN(Cc1nnc(-c2ccco2)o1)C1CCCN(c2cccnn2)C1 (stereo unspecified)	-46.62%
COc1ccc(NC(=O)N2CCN(CCSc3ccccc3)CC2)cc1	-16.65%
O=C(O)C(F)(F)F.[H][C@@]12CCN(S(=O)(=O)c3ccccc3)C[C@]1([H])[C@@H](CN(C)C)OC2	-39.45%
Cn1cc(-c2nc(C(=O)N3CCCC3Cn3cccn3)cs2)cn1 (stereo unspecified)	5.517%
Cc1cccc(C2(O)CCN(C(=O)c3ccc(N(C)C)cc3)CC2)c1C	3.803% and -2.362%
Cc1ccc(NC(=O)CCc2cnn(C)c2)cc1F	-8.927%
CC(C)CN1CCN(S(=O)(=O)c2cn(C)cn2)Cc2cccnc21.O=C(O)C(F)(F)F.O=C(O)C(F)(F)F	10.23%
CCc1nc(CN2CCCN(C(=O)CCSC)CC2)cs1	-7.453%
O=C(O)C(c1ccc2c(c1)OCCO2)N1CCC(N2CCOCC2)CC1 (stereo unspecified)	5.628% and -1.929%
Cc1nc2cc(O)nn2c(C)c1CCC(=O)NCCc1nccn1C	-3.882%
COc1cc(C(=O)N(Cc2ccco2)C2CC2)cc(OC)c1OC	-10.67% and -0.3406%
CCC(NC(=O)CNCC(F)(F)F)c1cc(F)ccc1F (stereo unspecified)	17.38%

Once more, the final 6:

structure	Percent Effect
CC(C)CN1CCN(S(=O)(=O)c2cn(C)cn2)Cc2cccnc21.O=C(O)C(F)(F)F.O=C(O)C(F)(F)F	10.23%
CCc1nc(CN2CCCN(C(=O)CCSC)CC2)cs1	-7.453%
O=C(O)C(c1ccc2c(c1)OCCO2)N1CCC(N2CCOCC2)CC1 (stereo unspecified)	5.628% and -1.929%
Cc1nc2cc(O)nn2c(C)c1CCC(=O)NCCc1nccn1C	-3.882%
COc1cc(C(=O)N(Cc2ccco2)C2CC2)cc(OC)c1OC	-10.67% and -0.3406%
CCC(NC(=O)CNCC(F)(F)F)c1cc(F)ccc1F (stereo unspecified)	17.38%